Experimental data taken from PubChem BioAssay AID248 (DTP/NCI, 2004).
The list does not hold the whole screen: it is rich in T/C values a quarter to a half above the control, in often repeated tests (any T/C) and in doses without a T/C. Other doses and runs of a compound stand elsewhere. T/C: endpoint of the treated group in % of that of the vehicle group. Some doses have a count of surviving animals in place of a T/C: the source files T/C as zero there, which appears to mark a toxic dose or a test without result, not a measured value. Some survivor counts are full or nearly so, which does not show that the dose was tolerated: the source hardly ever lists a survival T/C far under the control, and the zero likely stands for such cases as well. Survivors were counted at the toxicity check, usually on the fifth day, unless a day is given; later deaths do not show. Schedules are NCI's codes, taken here to give the interval after Q, in days (D) or hours (H), and the number of doses after X. Some entries were tested several times; the values are given in rising order. For survival time, this PubChem deposit counts one and a half times the control or more as active, and values a quarter to a half above the control carry no call in these data; other NCI protocols may use other cut-offs. Some T/C values are followed by the survivors on the day toxicity was checked, most often the fifth; without a count, all were alive then.

Test system: L1210 leukemia ip in BDF1 mice, survival T/C
Experiment: NCI In Vivo Anticancer Drug Screen. Data for tumor model L1210 Leukemia (intraperitoneal) in B6D2F1 (BDF1) mice
Conditions: higher T/C = longer survival

For `C[n+]1ccc(Nc2ccc(NC(=O)c3ccc(Nc4cc[n+](C)c5ccc(N)cc45)cc3)cc2)cc1`, the T/C (T/C endpoint: mean survival time, dose: 0.5 mg/kg/injection, schedule: Q01DX009 (ip), vehicle: water) was 138 % of control, the survivor count (T/C endpoint: mean survival time, dose: 0.5 mg/kg/injection, schedule: Q01DX009 (sc), vehicle: water) was 3 of 6 and the T/C (T/C endpoint: mean survival time, dose: 1.0 mg/kg/injection, schedule: Q01DX009 (ip), vehicle: water) was 128, 135, 141 % of control. For the same compound, the T/C (T/C endpoint: mean survival time, dose: 2.0 mg/kg/injection, schedule: Q01DX009 (sc), vehicle: Klucel (hydroxypropylcellulose) (HPC)) was 131 % of control, the T/C (T/C endpoint: mean survival time, dose: 2.0 mg/kg/injection, schedule: Q01DX009 (sc), vehicle: water) was 148 % of control and the survivor count (T/C endpoint: mean survival time, dose: 16.0 mg/kg/injection, schedule: Q01DX009 (ip), vehicle: Klucel (hydroxypropylcellulose) (HPC)) was 2 of 6. The survivor count (T/C endpoint: mean survival time, dose: 16.0 mg/kg/injection, schedule: Q01DX009 (ip), vehicle: water) was 0 of 10 and 2 of 6, the survivor count (T/C endpoint: mean survival time, dose: 32.0 mg/kg/injection, schedule: Q01DX009 (ip), vehicle: water) was 0 of 10 and the survivor count (T/C endpoint: mean survival time, dose: 200.0 mg/kg/injection, schedule: Q04DX003 (ip), vehicle: saline with Tween-80) was 2 of 6. For the same compound, the survivor count (T/C endpoint: mean survival time, dose: 400.0 mg/kg/injection, schedule: Q04DX003 (ip), vehicle: saline with Tween-80) was 3 of 6, the T/C (T/C endpoint: median survival time, dose: 0.5 mg/kg/injection, schedule: Q03HX008 (ip), vehicle: water) was 130 % of control and the T/C (T/C endpoint: median survival time, dose: 0.5 mg/kg/injection, schedule: Q03HX016 (ip), vehicle: water) was 138 % of control. For the same compound, the T/C (T/C endpoint: median survival time, dose: 0.5 mg/kg/injection, schedule: Q03HX024 (ip), vehicle: water) was 128 % of control, the T/C (T/C endpoint: median survival time, dose: 1.0 mg/kg/injection, schedule: Q01DX005 (ip), vehicle: water) was 139 % of control and the T/C (T/C endpoint: median survival time, dose: 1.0 mg/kg/injection, schedule: Q01DX009 (ip), vehicle: water) was 127 and 135 % of control. The T/C (T/C endpoint: median survival time, dose: 1.0 mg/kg/injection, schedule: Q03HX008 (ip), vehicle: water) was 125 and 143 % of control, the T/C (T/C endpoint: median survival time, dose: 1.0 mg/kg/injection, schedule: Q03HX016 (ip), vehicle: water) was 138 % of control and the T/C (T/C endpoint: median survival time, dose: 2.0 mg/kg/injection, schedule: Q01DX005 (ip), vehicle: water) was 141 % of control. For the same compound, the T/C (T/C endpoint: median survival time, dose: 2.0 mg/kg/injection, schedule: Q01DX009 (sc), vehicle: water) was 136 % of control, the T/C (T/C endpoint: median survival time, dose: 2.0 mg/kg/injection, schedule: Q03HX008 (ip), vehicle: water) was 144 % of control and the T/C (T/C endpoint: median survival time, dose: 4.0 mg/kg/injection, schedule: Q01DX001 (ip), vehicle: water) was 125 % of control. For the same compound, the survivor count (T/C endpoint: median survival time, dose: 4.0 mg/kg/injection, schedule: Q01DX009 (ip), vehicle: water) was 7 of 10, the T/C (T/C endpoint: median survival time, dose: 4.0 mg/kg/injection, schedule: Q03HX008 (ip), vehicle: water) was 148 % of control [9 of 10 alive] and the T/C (T/C endpoint: median survival time, dose: 4.0 mg/kg/injection, schedule: Q04DX003 (ip), vehicle: water) was 141 % of control. The T/C (T/C endpoint: median survival time, dose: 8.0 mg/kg/injection, schedule: Q01DX001 (ip), vehicle: water) was 134 % of control, the survivor count (T/C endpoint: median survival time, dose: 8.0 mg/kg/injection, schedule: Q01DX005 (ip), vehicle: water) was 6 of 10 and the survivor count (T/C endpoint: median survival time, dose: 8.0 mg/kg/injection, schedule: Q01DX009 (ip), vehicle: water) was 0 of 10 and 4 of 10. For the same compound, the survivor count (T/C endpoint: median survival time, dose: 8.0 mg/kg/injection, schedule: Q03HX008 (ip), vehicle: water) was 0 of 10 and 1 of 10, the survivor count (T/C endpoint: median survival time, dose: 8.0 mg/kg/injection, schedule: Q03HX016 (ip), vehicle: water) was 4 of 10 and 5 of 10 and the survivor count (T/C endpoint: median survival time, dose: 8.0 mg/kg/injection, schedule: Q03HX024 (ip), vehicle: water) was 1 of 10 and 5 of 10. For the same compound, the T/C (T/C endpoint: median survival time, dose: 8.0 mg/kg/injection, schedule: Q04DX003 (ip), vehicle: water) was 147 % of control, the T/C (T/C endpoint: median survival time, dose: 8.0 mg/kg/injection, schedule: Q08DX002 (ip), vehicle: water) was 131 % of control [9 of 10 alive] and the survivor count (T/C endpoint: median survival time, dose: 16.0 mg/kg/injection, schedule: Q01DX001 (ip), vehicle: water) was 0 of 10. For the same compound, the T/C (T/C endpoint: median survival time, dose: 16.0 mg/kg/injection, schedule: Q01DX001 (sc), vehicle: water) was 138 % of control, the survivor count (T/C endpoint: median survival time, dose: 16.0 mg/kg/injection, schedule: Q01DX005 (ip), vehicle: water) was 0 of 10 and 1 of 10 and the survivor count (T/C endpoint: median survival time, dose: 16.0 mg/kg/injection, schedule: Q01DX009 (ip), vehicle: water) was 0 of 10. The survivor count (T/C endpoint: median survival time, dose: 16.0 mg/kg/injection, schedule: Q01DX009 (sc), vehicle: water) was 10 of 10, the survivor count (T/C endpoint: median survival time, dose: 16.0 mg/kg/injection, schedule: Q04DX003 (ip), vehicle: water) was 1 of 10 and 5 of 10 and the survivor count (T/C endpoint: median survival time, dose: 16.0 mg/kg/injection, schedule: Q08DX002 (ip), vehicle: water) was 2 of 10 and 3 of 10. The survivor count (T/C endpoint: median survival time, dose: 32.0 mg/kg/injection, schedule: Q01DX001 (ip), vehicle: water) was 0 of 10 and 1 of 10, the T/C (T/C endpoint: median survival time, dose: 32.0 mg/kg/injection, schedule: Q01DX001 (sc), vehicle: water) was 132 % of control and the survivor count (T/C endpoint: median survival time, dose: 32.0 mg/kg/injection, schedule: Q04DX003 (ip), vehicle: water) was 1 of 10. For the same compound, the survivor count (T/C endpoint: median survival time, dose: 32.0 mg/kg/injection, schedule: Q08DX002 (ip), vehicle: water) was 0 of 10, the survivor count (T/C endpoint: median survival time, dose: 64.0 mg/kg/injection, schedule: Q01DX001 (ip), vehicle: water) was 0 of 10 and the survivor count (T/C endpoint: median survival time, dose: 64.0 mg/kg/injection, schedule: Q04DX003 (ip), vehicle: water) was 0 of 10. For the same compound, the survivor count (T/C endpoint: median survival time, dose: 64.0 mg/kg/injection, schedule: Q08DX002 (ip), vehicle: water) was 0 of 10 and 2 of 10.
